Results: patent US20020028193A1, “Recombinant beta2-adrenergic receptor delivery and use in treating airway and vascular diseases” (priority 2000, published 2002)
A negative result means that nothing was seen under these conditions. Where a protein sequence is shown, tags need not be part of it.

Target: T1, glucocorticoid receptor alpha (expressed from pRShGRalpha) (Homo sapiens) (UniProt P04150)
T1 sequence (looked up, limits assumed): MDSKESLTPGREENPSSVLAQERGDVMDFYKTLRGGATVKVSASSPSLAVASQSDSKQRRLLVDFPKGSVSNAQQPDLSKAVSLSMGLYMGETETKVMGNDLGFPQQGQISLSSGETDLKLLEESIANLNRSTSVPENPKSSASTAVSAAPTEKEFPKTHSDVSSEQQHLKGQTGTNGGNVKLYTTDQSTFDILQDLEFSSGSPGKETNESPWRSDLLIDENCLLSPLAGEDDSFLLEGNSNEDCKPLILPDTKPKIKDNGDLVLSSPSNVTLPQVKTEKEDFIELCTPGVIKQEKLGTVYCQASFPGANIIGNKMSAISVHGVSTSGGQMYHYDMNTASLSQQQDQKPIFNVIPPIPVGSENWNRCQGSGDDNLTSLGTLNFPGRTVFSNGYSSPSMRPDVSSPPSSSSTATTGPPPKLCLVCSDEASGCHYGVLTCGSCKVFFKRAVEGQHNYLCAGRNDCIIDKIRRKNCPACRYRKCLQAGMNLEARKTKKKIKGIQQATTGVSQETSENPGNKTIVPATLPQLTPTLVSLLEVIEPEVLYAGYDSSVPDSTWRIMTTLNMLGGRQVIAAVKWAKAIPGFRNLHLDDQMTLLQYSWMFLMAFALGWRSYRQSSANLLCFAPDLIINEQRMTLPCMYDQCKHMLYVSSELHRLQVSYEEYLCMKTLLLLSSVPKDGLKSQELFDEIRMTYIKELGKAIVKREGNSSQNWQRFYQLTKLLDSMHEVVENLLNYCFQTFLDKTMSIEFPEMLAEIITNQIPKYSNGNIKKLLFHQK
Test: activity in cells
Conditions: mutation within pbeta2ARm1(-3129/+126); glucocorticoid inducibility lost in HepG2; protein in cells; only the site is given

GGGTGAGCTATTCT (double strand) [m1GRE5 (core printed only)]
activity on this sequence: not active
